At least one compound was matched to its structure with a doubt left.
Tested on: thromboxane B2 (TXB2) formation
Assay: Formation of thromboxane B2 (another test system)
Conditions: 10 μg/ml

CCCCCCCCC([Se]c1ccccc1)C(O)CCCCCCCC(=O)O (centres unmarked) [9-Hydroxy-10-Phenylselenyloctadecanoic Acid]
effectiveness in preventing TBX2 synthesis: at least 95%

CCCCCCCCC(O)C(CCCCCCCC(=O)O)[Se]c1ccccc1 (centres unmarked) [9-Phenylselenyl-10-Hydroxyoctadecanoic Acid]
effectiveness in preventing TBX2 synthesis: at least 95%
